The results in this text go back to publication PMC12660843, “Using phage display for rational engineering of a higher-affinity humanized 3’ phosphohistidine-specific antibody” (Communications Chemistry, 2025).

The chains behind the UniProt entries cited, without tags or fusion partners. Residues count along the entry.
UniProt P02769, residues 25-607: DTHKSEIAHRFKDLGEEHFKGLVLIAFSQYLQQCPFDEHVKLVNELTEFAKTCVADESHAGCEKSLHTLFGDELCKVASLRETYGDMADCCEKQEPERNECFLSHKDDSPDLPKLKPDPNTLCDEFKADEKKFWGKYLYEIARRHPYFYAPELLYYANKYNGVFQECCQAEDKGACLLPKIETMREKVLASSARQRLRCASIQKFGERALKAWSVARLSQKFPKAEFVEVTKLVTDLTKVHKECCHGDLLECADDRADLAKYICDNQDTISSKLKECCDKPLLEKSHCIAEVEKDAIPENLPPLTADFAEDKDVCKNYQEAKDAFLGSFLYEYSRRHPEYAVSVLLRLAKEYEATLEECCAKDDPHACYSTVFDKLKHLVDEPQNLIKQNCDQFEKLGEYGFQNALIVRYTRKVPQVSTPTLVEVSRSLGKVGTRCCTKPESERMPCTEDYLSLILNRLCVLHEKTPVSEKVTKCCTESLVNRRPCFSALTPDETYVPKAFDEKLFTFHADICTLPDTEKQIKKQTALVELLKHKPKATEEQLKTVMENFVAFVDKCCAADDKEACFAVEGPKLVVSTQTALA

Substitutions are numbered along the chain they refer to. Names may count otherwise. No constants are given. Whether binding was seen depends on the method and setting. Some results given as binding are weak or reduced against the parent protein; the word gives no strength. For some of these results: Tags and fused reporters may be left off the sequences shown. Where no end group is shown, it is not given here. [ ]: non-standard residue; d: D form. The star is where a group is joined. 3‑pTza = 3-phosphotriazolyl alanine (also given as 3-phosphoryl-triazolylalanine); Biotin = O=C1N[C@H]2[C@H](CS[C@H]2CCCCC(=O)*)N1; Ahx = NCCCCCC(=O)O

The target in assay [1] is T1, ACLY-pHis peptide (VQFG-pHis-AGAC).
T1 sequence (peptide, phosphohistidine at position 5 of the peptide; biotin): VQFGHAGAC
As to the kind of experiment: BLI; biotinylated peptides from pHis substrate proteins phosphorylated by phosphoramidate and immobilized on the streptavidin biosensor tip; antibody in solution, its format and concentration not stated; both purified.

The target of assay [2] is T2, 3-pHis peptide (Biotin-AminocaproicAcid-A.G.A.G.H.A.G.A.G phosphorylated by phosphoramidate).
T2 construct: His-peptide, phosphorylated on His5; the phosphoramidate reaction gives a mixture of non-phosphorylated, 1-pHis, 3-pHis and di-pHis peptide; also called Biotinylated ACLYana-3-pHis; ACLYana-pHis; source: synthetic peptide, phosphorylated with potassium phosphoramidate; not shown: biotin, N-terminal, kept
T2 peptide: {Biotin-Ahx}-AGAG[3‑pHis]AGAG
The description is as above.

Assay [3] deals with T3, SCS-pHis peptide (RRMG-pHis-AGAI).
T3 sequence (peptide, phosphohistidine at position 5 of the peptide; biotin): RRMGHAGAI
Described as above.

Assay [4] concerns the target BSA (bovine) (UniProt P02769). Put plainly: ELISA; polyreactivity ELISA: KLH 5 ug/mL, insulin 1 ug/mL, BSA 1% (w/v), streptavidin 10 ug/mL added to wells; IgG at 100 nM; both purified.
Assay [5] addresses streptavidin (UniProt P22629). The description is as above.

B1: hSC44.20 (Fab or IgG not stated, Fig. S17) (antibody, V domains shown)
VH: EVQLVESGGGLVQPGGSLRLSCTASGFSIDSYGFSWVRQAPGKGLEHIGYLTAGGRAFYASWAKSRSTITRNTNENTVTLKMNSLRAEDTAVYYCAKLGTGSRFAIWGQGTLVTVSS
VL: DIQLTQSPSSLSASVGDRVTITCRASQSVWRNKNVAWYQQKPGKAPKRLIYAIASLYSGVPSRFSGSGSGTDFTLTISSLQPEDFATYYCVGHYGSENDAYYAFGQGTKVEIK
Take B1: the binding entry in assay [1], in assay [2] and in assay [3] was “binds” each time.

B2: hSC44.20.N32F^L (Fab or IgG not stated, Fig. S17) (antibody, V domains shown)
VH: B1 VH
VL: B1 VL with N34F
As for B2, the binding entry in assay [1], in assay [2] and in assay [3] was “binds” throughout.

B3: hSC44.20.N32Y^L IgG (antibody, V domains shown)
VH: B1 VH
VL: B1 VL with N34Y
notes: human IgG1, kappa light chain
Take B3: the binding entry in assay [4] and in assay [5] was “no binding (tested: IgG at 100 nM)” throughout.

B4: hSC44.20.N32F^L IgG (antibody, V domains shown)
VH: B1 VH
VL: B1 VL with N34F
notes: human IgG1, kappa light chain
B4: the binding entry in assay [4] and in assay [5] was “no binding (tested: IgG at 100 nM)” each time.
